Test [1] deals with T1, rat CCR8 (rat) (UniProt D4ADE0).
T1 sequence: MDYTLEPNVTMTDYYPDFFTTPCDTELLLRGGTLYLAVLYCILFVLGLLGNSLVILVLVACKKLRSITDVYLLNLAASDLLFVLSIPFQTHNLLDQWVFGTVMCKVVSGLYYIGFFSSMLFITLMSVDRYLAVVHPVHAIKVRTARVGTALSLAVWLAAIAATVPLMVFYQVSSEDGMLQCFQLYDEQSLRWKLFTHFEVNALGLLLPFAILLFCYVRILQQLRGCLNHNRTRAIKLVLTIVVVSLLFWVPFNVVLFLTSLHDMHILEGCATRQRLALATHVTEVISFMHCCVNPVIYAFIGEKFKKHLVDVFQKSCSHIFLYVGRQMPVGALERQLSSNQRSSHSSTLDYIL
As to the kind of experiment: FACS binding analysis (FIG. 4B).

By UniProt entry, the sequences of proteins in these tests, tags left out. Where a name states a change or a piece, a line headed by the entry shows the natural chain unless it says otherwise. Chains listed by the source or under a name are the forms on record and can include a tag or linker.
cynomolgus CCR8 (G7NYJ2, form named): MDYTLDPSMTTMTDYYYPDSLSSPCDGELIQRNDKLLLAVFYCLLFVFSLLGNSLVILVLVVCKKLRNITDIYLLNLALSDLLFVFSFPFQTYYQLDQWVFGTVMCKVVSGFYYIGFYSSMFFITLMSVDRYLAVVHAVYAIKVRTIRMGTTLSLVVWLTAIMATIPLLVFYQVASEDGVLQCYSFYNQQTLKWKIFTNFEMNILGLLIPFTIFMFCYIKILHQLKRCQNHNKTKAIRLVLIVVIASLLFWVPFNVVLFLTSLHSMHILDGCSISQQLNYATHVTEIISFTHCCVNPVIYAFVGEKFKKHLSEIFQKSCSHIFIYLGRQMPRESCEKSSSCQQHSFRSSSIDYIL
UniProt P51685: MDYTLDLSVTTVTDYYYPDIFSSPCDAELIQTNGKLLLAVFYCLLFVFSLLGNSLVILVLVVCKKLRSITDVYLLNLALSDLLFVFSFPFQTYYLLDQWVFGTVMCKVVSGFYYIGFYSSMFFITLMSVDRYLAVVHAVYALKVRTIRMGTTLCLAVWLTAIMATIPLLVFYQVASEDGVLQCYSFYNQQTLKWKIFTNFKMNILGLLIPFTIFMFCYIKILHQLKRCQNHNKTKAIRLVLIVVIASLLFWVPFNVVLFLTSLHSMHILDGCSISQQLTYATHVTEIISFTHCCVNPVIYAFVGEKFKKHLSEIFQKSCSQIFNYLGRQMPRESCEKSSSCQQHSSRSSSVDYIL

Test [2] concerns the target cynomolgus CCR8 (cynomolgus) (UniProt G7NYJ2). The experiment in a line: FACS binding analysis (FIG. 4E).
The target is the same in test [3]. The experiment in a line: flow cytometry on CCR8-overexpressing cells.
The target in test [4] is T1, rat CCR8 (rat). As to the kind of experiment: flow cytometry on CCR8-overexpressing cells.
For test [5], the target named is cynomolgus CCR8 (cynomolgus) (UniProt G7NYJ2). As to the kind of experiment: species cross reactivity, comparison of Table 12.
Test [6] concerns the target T1, rat CCR8 (rat). As to the kind of experiment: species cross reactivity, comparison of Table 12.
Test [7] addresses cynomolgus CCR8 (cynomolgus) (UniProt G7NYJ2). The experiment in a line: flow cytometry on cynomolgus CCR8-overexpressing 293F cells.
For the next test, the target named is human CCR8 (human) (UniProt P51685). As to the kind of experiment: FACS on human CCR8-expressing 293F cells.

Where a chain is given by its changes, count along the chain named. These are yes or no findings as the source states them, for the method shown. Some results given as binding are weak or reduced against the parent protein; the word gives no strength.

B1: 3F11hz4 (antibody, V domains shown)
VH: EVQLVESGGGLVQPGGSLKLSCAASGFSFNTYAMNWVRQASGKGLEWVGRIRSKSNYYATYYAASVKGRFTISRDDSKSTLYLQMNSLKTEDTAVYYCVRGRELGDYYAMDYWGQGTLVTVSS
VL: DIVMTQSPLSLPVTPGEPASISCRSSKSLLHSNGNTYLYWFLQKPGQSPQLLIYRMSNLASGVPDRFSGSGSGTDFTLKISRVEAEDVGVYYCMQHLEYPFTFGQGTKLEIK
Regarding B1, the binding entry (with rat CCR8 (rat) [1]; in test [2]; in test [3]; with rat CCR8 (rat) [4]; in test [5]; with rat CCR8 (rat) [6]) was “binds” throughout.

B2: 3F11 (antibody, V domains shown)
VH: B1 VH with G15K, S41P, G49A, A64D, G68D, K78E, T80M, S87N, V95M, L118S
VL: DIVMTQAAPSVPVTPGESVSISCRSSKSLLHSNGNTYLYWFLQRPGQSPQLLIYRMSNLASGVPNRFSGSGSGTAFTLRISRVEAEDVGVYYCMQHLEYPFTFGSGTKLEIK
For the molecule B2, in test [7], the binding result is reported as “binds”.

B3: 1G17hz1 (antibody, V domains shown)
VH: QVQLVQSGAEVKKPGASVKVSCKASGYTFADYYMHWVRQAPGQGLEWMGAIDPETGRTAYAQKFQGRVTMTRDTSTSTVYMELSSLRSEDTAVYYCARRAYWGGWGQGTLVTVSS
VL: DVVMTQSPLSLPVTLGQPASISCRSSQSLVHSSGNTYLHWFQQRPGQSPRRLIYKVSNRFSGVPDRFSGSGSGTDFTLKISRVEAEDVGVYYCSQSTHVPYTFGQGTKLEIK
In the case of B3, the binding result with human CCR8 (human) is listed as “no binding”.

B4: 84B4 (antibody, V domains shown)
VH: EVQLQQSGPVLVKPGASVKMSCKASGFTITDYYFNWVKQSHGKSLEWIGIINPYNGVARYKQKFKGKATLTVDKSSSTVYLEFSGLTSEDSAVYYCVRFVYGTTYDYAMDYWGQGTSVTVSS
VL: DVLMTQTPLSLPVSLGDQASISCRSSQSIVHSNGNTYLEWYVQKPGQSPKLLIYKVSNRFSGVPDRFSGSGSGTDFTLKISRVEAEDLGVYYCFQGSHVPPTFGGGTKLEIK
Regarding B4, the binding result in test [7] was “binds”.

B5: 3O20 (antibody, V domains shown)
VH: EVQLVESGGGLVQPKGSLKLSCATSGFSFNAYAMNWVRQAPGKGLEWVGRIRSKSNNYATYYADSVKGRFTISRDDSKTILYLQMNTLKTEDTAIYYCVRGGYHGNSAYFDVWGTGTSVTVSS
VL: B2 VL with N65D, M94L
On to B5, for which the binding entry in test [7] was “binds”.

B6: 4G19 (antibody, V domains shown)
VH: EVQFVESGGGLVQPKGSLKLSCAASGFSFNTYAMNWVRQAPGKGLEWVARIRTKSNNYATHYADSVTDRFIVSRDDSESMTYLQMNNLKTEDTGMYYCVRGGNGIYGRNTMDNWGQGTSVTVSS
VL: B2 VL with A7T, T14S, N33S, N65D, S105G, K112Q
Turning to B6, the binding entry in test [7] was “binds”.

B7: 3C11 (antibody, V domains shown)
VH: EFQLQQSGPELVKPGASVKISCKTSGYSFTDYNINWVKQSNGKSLEWIGLINPNHGTTKSNQKFKGKATLTVDQSSSTAYMQLSSLTSEDSAVYYCARHDYDGAYWGQGTLVTVSA
VL: DVVMTQTPLSLPVSLGDQASISCRSSQSLIHSNGNTYLHWYLQKPGQSPKLLIYKISNRFSGVPDRFSGSGSGTDFTLKISRVEAEDLGVYFCSQSTRAPWTFGGGTKLEIK
For B7, the binding result in test [7] is reported as “binds”.

These data come from patent publication US20240352134A1.
